The assay addresses Fc-glucagon (human) (UniProt P01275). Briefly: co-IP; Fc-glucagon or Fc alone captured on Protein A-Sepharose from secretory granule lysate of transfected α-TC1-6 cells, overnight at 4°C; eluted with 0.1 M glycine pH 2.8; immunoblot for GRP78 or histone H4 (histone H4 after treatment of the cells with GABA).

Sequences of proteins named here, by UniProt entry; tags and fusion partners are left off. Residues count along the entry.
UniProt P01275, residues 53-81: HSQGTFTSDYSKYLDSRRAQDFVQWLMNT
UniProt P20029, residues 20-655: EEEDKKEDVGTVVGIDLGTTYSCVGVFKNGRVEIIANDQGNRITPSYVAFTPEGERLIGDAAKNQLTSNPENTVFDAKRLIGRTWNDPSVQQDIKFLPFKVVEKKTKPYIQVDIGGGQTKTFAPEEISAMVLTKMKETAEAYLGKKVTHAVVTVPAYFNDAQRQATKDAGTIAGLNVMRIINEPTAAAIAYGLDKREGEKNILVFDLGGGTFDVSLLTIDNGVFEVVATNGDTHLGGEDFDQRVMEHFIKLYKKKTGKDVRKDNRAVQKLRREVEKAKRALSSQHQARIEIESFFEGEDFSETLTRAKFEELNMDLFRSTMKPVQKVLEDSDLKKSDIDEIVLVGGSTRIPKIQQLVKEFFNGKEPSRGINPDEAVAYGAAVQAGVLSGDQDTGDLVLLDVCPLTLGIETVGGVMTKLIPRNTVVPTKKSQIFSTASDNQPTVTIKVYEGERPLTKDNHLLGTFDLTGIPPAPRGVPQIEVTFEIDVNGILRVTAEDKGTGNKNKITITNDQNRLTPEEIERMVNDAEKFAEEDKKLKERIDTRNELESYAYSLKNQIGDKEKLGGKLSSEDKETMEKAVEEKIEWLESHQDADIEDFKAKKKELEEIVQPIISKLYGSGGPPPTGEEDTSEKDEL

These are yes or no findings as the source states them, for the method shown. Binding seen in cells or lysates may run through a third protein. Some binding calls cover weakened binding; strength is not graded here.

As to “glucose regulated protein 78 kDa (from UniProt P20029 20-655)”, the binding entry was “binds”.
